Data on 3 molecules can be found in PMC11343471.

No constants are given. Whether binding was seen depends on the method and setting. Binding seen in cells or lysates may run through a third protein. Some results given as binding are weak or reduced against the parent protein; the word gives no strength. Tags and fused reporters may be left off the sequences shown.

Holding throughout (experiment): co-IP; ectopic co-IP in HEK293 cells transfected with 3xHA- or FLAG-tagged constructs; ANTI-FLAG M2 beads, about 3 h at 4 °C, Co-IP buffer (50 mM Tris/Cl pH 7.5, 150 mM NaCl, 1% Triton X-100, 1 mM EDTA, 10% glycerol); western blot; in some panels cells treated with DMSO or 20 nM ORY-1001
The target of experiment [1] is T1, SAMD1 FL (1-538), tagged, expressed in HEK293 (UniProt Q6SPF0).
T1 sequence: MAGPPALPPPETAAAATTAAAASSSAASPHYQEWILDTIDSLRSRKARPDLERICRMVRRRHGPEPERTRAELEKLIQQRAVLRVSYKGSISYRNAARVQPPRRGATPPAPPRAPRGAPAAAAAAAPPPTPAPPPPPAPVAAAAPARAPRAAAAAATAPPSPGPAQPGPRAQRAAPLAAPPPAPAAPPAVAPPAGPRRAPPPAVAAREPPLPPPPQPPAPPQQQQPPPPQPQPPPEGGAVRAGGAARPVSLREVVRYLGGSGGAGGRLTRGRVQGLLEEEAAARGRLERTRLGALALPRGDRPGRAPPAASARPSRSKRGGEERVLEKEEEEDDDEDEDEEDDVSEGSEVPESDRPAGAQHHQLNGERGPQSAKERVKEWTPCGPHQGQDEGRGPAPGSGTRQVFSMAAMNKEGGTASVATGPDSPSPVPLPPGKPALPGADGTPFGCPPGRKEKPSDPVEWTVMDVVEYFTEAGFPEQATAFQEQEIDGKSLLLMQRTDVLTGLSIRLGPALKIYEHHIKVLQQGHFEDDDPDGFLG

For experiment [2], the target named is KDM1A IDR (1-172), tagged, expressed in HEK293 (UniProt O60341).
Experiment [3] deals with KDM1A IDR/SWIRM/AOD-N (1-417), tagged, expressed in HEK293 (UniProt O60341).
For experiment [4], the target named is T2, SAMD1 ΔSAM (1-450), tagged, expressed in HEK293 (UniProt Q6SPF0).
T2 sequence: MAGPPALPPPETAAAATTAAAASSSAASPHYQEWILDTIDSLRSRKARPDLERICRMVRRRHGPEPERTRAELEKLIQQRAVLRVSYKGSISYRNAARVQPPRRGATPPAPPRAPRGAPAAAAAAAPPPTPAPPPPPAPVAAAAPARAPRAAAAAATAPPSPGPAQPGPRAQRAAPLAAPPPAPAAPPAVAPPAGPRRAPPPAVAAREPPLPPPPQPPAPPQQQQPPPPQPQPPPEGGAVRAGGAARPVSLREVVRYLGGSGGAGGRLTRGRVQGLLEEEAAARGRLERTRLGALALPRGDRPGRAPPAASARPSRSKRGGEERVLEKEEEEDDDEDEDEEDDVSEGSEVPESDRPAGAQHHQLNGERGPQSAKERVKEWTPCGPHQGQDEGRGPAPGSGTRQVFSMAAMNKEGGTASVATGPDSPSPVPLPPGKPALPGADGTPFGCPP

B1: FBXO11 IDR + F-box (1-300), tagged, expressed in HEK293 (domain or fragment, UniProt Q86XK2-6 1-300)
chain: MVAEESGPGAQNSPYQLRRKTLLPKRTACPTKNSMEGASTSTTENFGHRAKRARVSGKSQDLSAAPAEQYLQEKLPDEVVLKIFSYLLEQDLCRAACVCKRFSELANDPILWKRLYMEVFEYTRPMMHPEPGKFYQINPEEYEHPNPWKESFQQLYKGAHVKPGFAEHFYSNPARYKGRENMLYYDTIEDALGGVQEAHFDGLIFVHSGIYTDEWIYIESPITMIGAAPGKVADKVIIENTRDSTFVFMEGSEDAYVGYMTIRFNPDDKSAQHHNAHHCLEITVNCSPIIDHCIIRSTCT
Turning to B1, the binding result in experiment [1] is on record as “binds”.

B2: FBXO11 FL (1-843, Q86XK2-6), tagged, expressed in HEK293 (protein, UniProt Q86XK2-6 1-843)
chain: MVAEESGPGAQNSPYQLRRKTLLPKRTACPTKNSMEGASTSTTENFGHRAKRARVSGKSQDLSAAPAEQYLQEKLPDEVVLKIFSYLLEQDLCRAACVCKRFSELANDPILWKRLYMEVFEYTRPMMHPEPGKFYQINPEEYEHPNPWKESFQQLYKGAHVKPGFAEHFYSNPARYKGRENMLYYDTIEDALGGVQEAHFDGLIFVHSGIYTDEWIYIESPITMIGAAPGKVADKVIIENTRDSTFVFMEGSEDAYVGYMTIRFNPDDKSAQHHNAHHCLEITVNCSPIIDHCIIRSTCTVGSAVCVSGQGACPTIKHCNISDCENVGLYITDHAQGIYEDNEISNNALAGIWVKNHGNPIIRRNHIHHGRDVGVFTFDHGMGYFESCNIHRNRIAGFEVKAYANPTVVRCEIHHGQTGGIYVHEKGRGQFIENKIYANNFAGVWITSNSDPTIRGNSIFNGNQGGVYIFGDGRGLIEGNDIYGNALAGIQIRTNSCPIVRHNKIHDGQHGGIYVHEKGQGVIEENEVYSNTLAGVWVTTGSTPVLRRNRIHSGKQVGVYFYDNGHGVLEDNDIYNHMYSGVQIRTGSNPKIRRNKIWGGQNGGILVYNSGLGCIEDNEIFDNAMAGVWIKTDSNPTLRRNKIHDGRDGGICIFNGGRGLLEENDIFRNAQAGVLISTNSHPILRKNRIFDGFAAGIEITNHATATLEGNQIFNNRFGGLFLASGVNVTMKDNKIMNNQDAIEKAVSRGQCLYKISSYTSYPMHDFYRCHTCNTTDRNAICVNCIKKCHQGHDVEFIRHDRFFCDCGAGTLSNPCTLAGEPTHDTDTLYDSAPPIESNTLQHN
Take B2: the binding result in experiment [2], in experiment [3], in experiment [1] and in experiment [4] was “binds” in each case.

B3: FBXO11 ΔUBR (1-737), tagged, expressed in HEK293 (domain or fragment, UniProt Q86XK2-6 1-737)
chain: MVAEESGPGAQNSPYQLRRKTLLPKRTACPTKNSMEGASTSTTENFGHRAKRARVSGKSQDLSAAPAEQYLQEKLPDEVVLKIFSYLLEQDLCRAACVCKRFSELANDPILWKRLYMEVFEYTRPMMHPEPGKFYQINPEEYEHPNPWKESFQQLYKGAHVKPGFAEHFYSNPARYKGRENMLYYDTIEDALGGVQEAHFDGLIFVHSGIYTDEWIYIESPITMIGAAPGKVADKVIIENTRDSTFVFMEGSEDAYVGYMTIRFNPDDKSAQHHNAHHCLEITVNCSPIIDHCIIRSTCTVGSAVCVSGQGACPTIKHCNISDCENVGLYITDHAQGIYEDNEISNNALAGIWVKNHGNPIIRRNHIHHGRDVGVFTFDHGMGYFESCNIHRNRIAGFEVKAYANPTVVRCEIHHGQTGGIYVHEKGRGQFIENKIYANNFAGVWITSNSDPTIRGNSIFNGNQGGVYIFGDGRGLIEGNDIYGNALAGIQIRTNSCPIVRHNKIHDGQHGGIYVHEKGQGVIEENEVYSNTLAGVWVTTGSTPVLRRNRIHSGKQVGVYFYDNGHGVLEDNDIYNHMYSGVQIRTGSNPKIRRNKIWGGQNGGILVYNSGLGCIEDNEIFDNAMAGVWIKTDSNPTLRRNKIHDGRDGGICIFNGGRGLLEENDIFRNAQAGVLISTNSHPILRKNRIFDGFAAGIEITNHATATLEGNQIFNNRFGGLFLASGVNVTMKDNKIMN
Regarding B3, the binding entry in experiment [1] was “binds”.
